The values that follow come from article PMC8055014.

Chains of the proteins cited; added tags and fusions are not shown. Lines headed by an entry give the natural chain unless they say otherwise; changes in a name come on top. A line that says so, or that is headed by a name, gives the form on record, which may keep a tag or linker.
UniProt Q9LXV2: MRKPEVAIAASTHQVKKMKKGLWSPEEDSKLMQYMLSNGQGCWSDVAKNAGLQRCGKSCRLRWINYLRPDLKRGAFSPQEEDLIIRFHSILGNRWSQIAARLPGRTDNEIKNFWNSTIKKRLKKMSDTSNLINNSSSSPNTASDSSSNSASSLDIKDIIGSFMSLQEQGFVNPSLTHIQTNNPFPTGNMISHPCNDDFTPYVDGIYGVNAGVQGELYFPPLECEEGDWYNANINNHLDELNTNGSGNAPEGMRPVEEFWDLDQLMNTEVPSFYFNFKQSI
UniProt Q39026: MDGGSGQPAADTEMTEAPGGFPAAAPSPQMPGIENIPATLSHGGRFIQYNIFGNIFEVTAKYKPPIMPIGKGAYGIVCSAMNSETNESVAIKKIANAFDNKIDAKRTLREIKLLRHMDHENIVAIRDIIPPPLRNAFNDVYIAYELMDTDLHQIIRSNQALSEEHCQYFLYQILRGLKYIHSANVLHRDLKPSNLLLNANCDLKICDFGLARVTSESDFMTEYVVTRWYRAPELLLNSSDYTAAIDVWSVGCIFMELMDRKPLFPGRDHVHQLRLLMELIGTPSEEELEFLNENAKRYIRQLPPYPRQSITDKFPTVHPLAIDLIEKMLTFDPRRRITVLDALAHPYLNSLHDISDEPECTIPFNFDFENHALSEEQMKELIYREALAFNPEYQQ
CAMPK6-HA (Q39026, form named): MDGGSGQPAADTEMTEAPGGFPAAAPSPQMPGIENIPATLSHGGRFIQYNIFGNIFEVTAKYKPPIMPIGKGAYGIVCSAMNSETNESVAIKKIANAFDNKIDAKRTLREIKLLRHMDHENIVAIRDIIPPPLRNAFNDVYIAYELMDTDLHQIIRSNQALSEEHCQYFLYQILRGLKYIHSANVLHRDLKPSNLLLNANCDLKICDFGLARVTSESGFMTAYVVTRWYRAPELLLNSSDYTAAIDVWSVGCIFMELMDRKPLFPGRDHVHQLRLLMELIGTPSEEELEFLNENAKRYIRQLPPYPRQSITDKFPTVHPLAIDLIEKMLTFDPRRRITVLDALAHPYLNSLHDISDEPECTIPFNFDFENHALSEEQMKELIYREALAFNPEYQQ

In experiment [1] the target is MYB46 (yeast two-hybrid bait) (Arabidopsis thaliana) (UniProt Q9LXV2). Briefly: two-hybrid; MYB46 as bait, CAMPK6 as prey; yeast AH109; spot assay on SD -Leu -Trp -His with 1 mM 3AT.
Experiment [2] addresses CAMPK6-HA (Arabidopsis thaliana) (UniProt Q39026). The experiment in a line: co-IP; MYB46-GFP and CAMPK6-HA co-expressed in Arabidopsis mesophyll protoplasts with MG132; immunoprecipitation with anti-HA antibody, blot with anti-GFP antibody.

These are yes or no findings as the source states them, for the method shown. For some assays here: In cells and extracts the contact can be indirect. Some entries that bind do so weakly or less than the wild type.

In the case of “CAMPK6, constitutively active form of MPK6 (MPK6 D218G, E222A) (yeast two-hybrid prey) (from UniProt Q39026 1-395) (enzyme)”, the binding result in experiment [1] is “binds”.

With MYB46-GFP (from UniProt Q9LXV2 1-280), in experiment [2], the binding result is “binds”.
